Values of other authors in patent publication US8193185B2, “Use of tryptanthrin compounds for immune potentiation” (Novartis Vaccines and Diagnostics, Inc., priority 2003, dated 2012).
At least one compound was matched to its structure with a doubt left.

System: TNF-a
Settings: literature value, Pope et al. 1995; cited from earlier work

C=CCn1c(=O)n([C@@H]2O[C@H](CO)[C@@H](O)[C@H]2O)c2nc(N)[nH]c(=O)c21 [Loxoribine, 7-Allyl-8-Oxoguanosine]
concentration causing useful production of TNF-a: 300 µM
